Data taken from publication PMC5849714, “Direct coupling of detergent purified human mGlu5 receptor to the heterotrimeric G proteins Gq and Gs” (Scientific Reports, 2018).
Results are given in words; binding and its absence hold for the method and conditions named.

Amino acid sequences for entries named in this document (tags omitted). A change or cut given only in a name is not applied to a line headed by its entry. Residues count along the entry.
UniProt P41594, residues 21-856: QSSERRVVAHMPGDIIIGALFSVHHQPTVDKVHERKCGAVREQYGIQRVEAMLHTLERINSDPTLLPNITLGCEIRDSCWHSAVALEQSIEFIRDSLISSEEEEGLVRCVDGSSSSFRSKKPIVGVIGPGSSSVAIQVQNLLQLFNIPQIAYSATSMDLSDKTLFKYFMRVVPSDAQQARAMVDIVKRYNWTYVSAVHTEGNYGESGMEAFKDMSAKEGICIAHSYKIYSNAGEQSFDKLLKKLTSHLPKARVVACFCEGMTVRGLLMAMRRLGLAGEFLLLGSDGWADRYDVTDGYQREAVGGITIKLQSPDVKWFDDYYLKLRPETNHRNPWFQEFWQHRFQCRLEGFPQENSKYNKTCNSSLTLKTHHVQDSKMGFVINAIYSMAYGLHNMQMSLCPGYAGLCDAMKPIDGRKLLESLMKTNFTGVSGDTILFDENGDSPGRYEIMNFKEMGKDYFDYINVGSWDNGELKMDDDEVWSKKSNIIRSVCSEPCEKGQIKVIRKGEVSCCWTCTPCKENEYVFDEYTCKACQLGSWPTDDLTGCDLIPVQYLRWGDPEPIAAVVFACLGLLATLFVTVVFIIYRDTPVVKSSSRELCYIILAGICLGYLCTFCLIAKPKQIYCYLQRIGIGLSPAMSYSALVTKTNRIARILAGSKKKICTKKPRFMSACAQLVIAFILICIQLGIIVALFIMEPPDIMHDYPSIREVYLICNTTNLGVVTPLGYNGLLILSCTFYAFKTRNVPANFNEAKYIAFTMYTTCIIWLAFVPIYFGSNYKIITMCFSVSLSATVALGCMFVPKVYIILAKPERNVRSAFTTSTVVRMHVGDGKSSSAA

Molecular target: SNAP-mGlu5-Δ856 (FLAG-SNAP-tagged human mGlu5 receptor truncated after A856) (human) (UniProt P41594)
Experiment: condition: only under reducing conditions (DTT), on SDS-PAGE; reducing SDS-PAGE; SNAP-Red-labelled receptor extracted from HEK293 with 0.83% MNG3/0.083% CHS, supernatant with 10 mM dithiothreitol, 5 min at 37 °C, 4–20% Tris Glycine gel, far-red scan

## SNAP-mGlu5-Δ856 (FLAG-SNAP-tagged human mGlu5 receptor truncated after A856) (from UniProt P41594-2 21-856)
  binding: no binding
